Data as given in doi:10.1101/550277.
Changes are numbered by the printed parent chain. Results are given in words; binding and its absence hold for the method and conditions named. Binding seen in cells or lysates may run through a third protein. Some entries that bind do so weakly or less than the wild type. For part of these data: Sequences can lack the tags named with a protein.

Amino acid sequences for entries named in this document (tags omitted).
UniProt Q24117: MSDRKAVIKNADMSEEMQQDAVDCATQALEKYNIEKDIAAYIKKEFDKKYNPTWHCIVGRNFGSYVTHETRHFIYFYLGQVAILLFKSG

Tests used:
Test in all cases: co-IP
[1] = biological target: T1, Egl_4e-RFP expressed in S2 cells (Drosophila) (UniProt Q9W1K4)
T1 sequence: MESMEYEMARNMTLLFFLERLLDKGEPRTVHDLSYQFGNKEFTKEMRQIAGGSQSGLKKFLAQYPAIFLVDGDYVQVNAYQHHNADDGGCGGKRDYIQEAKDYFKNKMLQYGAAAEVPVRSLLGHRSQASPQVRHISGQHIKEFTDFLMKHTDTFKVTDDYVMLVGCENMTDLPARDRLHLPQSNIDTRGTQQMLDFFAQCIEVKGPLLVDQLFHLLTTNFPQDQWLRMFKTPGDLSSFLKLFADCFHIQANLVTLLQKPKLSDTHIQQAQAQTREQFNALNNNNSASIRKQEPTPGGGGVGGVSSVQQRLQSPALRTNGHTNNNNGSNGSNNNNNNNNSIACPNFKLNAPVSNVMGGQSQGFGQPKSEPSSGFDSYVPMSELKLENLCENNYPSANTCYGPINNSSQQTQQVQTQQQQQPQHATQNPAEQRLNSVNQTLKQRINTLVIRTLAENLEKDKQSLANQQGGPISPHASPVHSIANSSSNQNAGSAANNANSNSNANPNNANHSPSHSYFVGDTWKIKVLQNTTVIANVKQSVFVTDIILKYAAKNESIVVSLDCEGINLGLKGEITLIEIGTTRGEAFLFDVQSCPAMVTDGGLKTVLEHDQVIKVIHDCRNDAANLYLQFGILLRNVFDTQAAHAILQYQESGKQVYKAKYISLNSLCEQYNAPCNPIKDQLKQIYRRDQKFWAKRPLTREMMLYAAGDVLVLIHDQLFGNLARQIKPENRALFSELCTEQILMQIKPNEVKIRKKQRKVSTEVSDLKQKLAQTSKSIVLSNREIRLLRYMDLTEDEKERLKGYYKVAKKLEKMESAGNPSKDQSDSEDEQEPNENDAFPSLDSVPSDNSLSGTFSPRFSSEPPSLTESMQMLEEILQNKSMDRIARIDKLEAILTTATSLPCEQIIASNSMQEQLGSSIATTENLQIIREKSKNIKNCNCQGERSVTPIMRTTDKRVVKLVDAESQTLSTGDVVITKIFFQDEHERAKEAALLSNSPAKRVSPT

[2] = biological target: T2, Egl_wt-GFP expressed in S2 cells (second copy in the dimerisation test: Egl_wt-FLAG) (Drosophila) (UniProt Q9W1K4)
T2 sequence: T1 sequence with Y35C

[3] = biological target: T3, Egl_wt-RFP expressed in S2 cells (Drosophila) (UniProt Q9W1K4)
T3 sequence: T1 sequence with Y35C

Measured: binding

Dynein light chain/LC8 (Dlc) in S2 cell lysate (from UniProt Q24117 1-89)
binds: all assays above
